Values quoted from earlier work as cited in patent publication US12168006B2, “Cancer therapy by degrading dual MEK signaling” (The Board of Trustees of the University of Illinois, priority 2017, dated 2024).

Tested on: AKT
Details: at 1 μM; cited from earlier work

Compound: Cc1ccc(NC(=O)c2ccc(CN3CCN(C)CC3)cc2)cc1Nc1nccc(-c2cccnc2)n1 [Imatinib]
- % Inhibition of AKT: 3.2% at 1 μM
